From patent US20260007720A1, “TISSUE REGENERATIVE MULTI-DRUG COCKTAIL AND APPARATUS FOR DELIVERY THEREOF” (priority 2022, published 2026)
For part of these data: For at least one compound, name, drawing or mass did not settle the structure. Some results were stated once for a whole list of compounds, not compound by compound.

What was measured:
[1] = tested on: amputated P2 bone; test: Drug-loaded silk hydrogel after digit P2 amputation (microCT recovered bone at day 98); assay type: in vivo, mice; details: 24 hrs hydrogel contact
[2] = In vitro cumulative release of drugs from silk hydrogel; assay type: physicochemical; details: by 25 min; 1x DPBS, 37° C.

Structure (SMILES) | Bone elongation, range [1] | Average net-recovered bone ([1]; single agent) | Release of drug from hydrogel [2]
CC(=O)[C@H]1CC[C@H]2[C@@H]3CCC4=CC(=O)CC[C@]4(C)[C@H]3CC[C@]12C [Progesterone] | 20-65% | at least 20% | –
CC1=C(/C=C/C(C)=C/C=C/C(C)=C/C(=O)O)C(C)(C)CCC1 [retinoic acid] | – | – | all of the drug
